No constants are given. Whether binding was seen depends on the method and setting. Binding seen in cells or lysates may run through a third protein. These calls come from enrichment with a bait or labelling near it, and not all partners need be listed. A no says only that the protein was not detected with the bait.
B1: MSMEG_6540 (protein, UniProt A0R6G4 1-413)
chain: MASSAALQDRLGQRFKHWRYDPPYKTACAGMVILVVTVLVLTWMQFRGDFEDKAEITLFASRSGLSMDPGSKVTFNGVPIGRLKGVDVVEVDDNPEARLTLDIDPKYLDLIPANAVAELRATTVFGNKYVSFTAPEHPSAERLSASTPIRAQGVTTEFNTLFETITAISEQVDPIKLNETLTAAAQALDGLGDKFGRSIVDGNAILADVNPRMPQIRRDITGLANLGEVYADAAPDLFDGLDNAVTTARTLNDQRHDLDQALVAAVGFGNTGGDIFERGGPYLVRGNQDLLPVAEMFDRNSPALYCTIKNYHDAAPKFAAQTNNGYSFQLNDTFVGAGNPYVYPDNLPRVNARGGPEGRPGCWQPITHDLWPAPYLVLDTGASIAPYNHFELGQPMFIEYVWGRQVGENTINP
B2: MSMEG_0959 (protein, UniProt A0QR24 1-164)
chain: MSGVPDASGAAPAGEVLFYEQGASWAWLLSGPIAGVGMAILQRTGGYGYDLWIPLIFLVLVSGFIAIQIKAARIHTSVELTRETLRQGTEIISIDEIVDIYPEASGSEVPKWQSARALGELTGVPRGRTGIGLKLTGKRVAQAWARRHRTLRAALQQLVEERTP

Sequences of proteins named here, by UniProt entry; tags and fusion partners are left off. A change or cut given only in a name is not applied to a line headed by its entry.
UniProt A0QNR1: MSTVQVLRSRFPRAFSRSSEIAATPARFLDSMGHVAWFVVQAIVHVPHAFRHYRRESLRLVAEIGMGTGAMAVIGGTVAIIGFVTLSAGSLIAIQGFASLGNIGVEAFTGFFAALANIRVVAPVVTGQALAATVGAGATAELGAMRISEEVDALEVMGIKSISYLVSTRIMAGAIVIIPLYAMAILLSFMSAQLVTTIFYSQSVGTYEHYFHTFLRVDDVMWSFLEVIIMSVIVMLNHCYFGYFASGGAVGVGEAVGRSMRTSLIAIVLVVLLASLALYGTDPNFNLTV
UniProt A0R4F8: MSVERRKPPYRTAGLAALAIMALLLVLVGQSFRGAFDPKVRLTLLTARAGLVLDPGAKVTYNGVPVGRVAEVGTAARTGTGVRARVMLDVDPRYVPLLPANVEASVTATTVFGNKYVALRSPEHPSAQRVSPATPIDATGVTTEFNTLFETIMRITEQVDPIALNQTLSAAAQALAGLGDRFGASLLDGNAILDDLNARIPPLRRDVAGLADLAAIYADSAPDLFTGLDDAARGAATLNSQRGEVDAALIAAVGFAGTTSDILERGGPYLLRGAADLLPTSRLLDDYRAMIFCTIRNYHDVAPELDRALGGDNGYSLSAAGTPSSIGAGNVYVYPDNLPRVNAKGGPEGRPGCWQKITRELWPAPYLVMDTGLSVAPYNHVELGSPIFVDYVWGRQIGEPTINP
UniProt A0QNR2: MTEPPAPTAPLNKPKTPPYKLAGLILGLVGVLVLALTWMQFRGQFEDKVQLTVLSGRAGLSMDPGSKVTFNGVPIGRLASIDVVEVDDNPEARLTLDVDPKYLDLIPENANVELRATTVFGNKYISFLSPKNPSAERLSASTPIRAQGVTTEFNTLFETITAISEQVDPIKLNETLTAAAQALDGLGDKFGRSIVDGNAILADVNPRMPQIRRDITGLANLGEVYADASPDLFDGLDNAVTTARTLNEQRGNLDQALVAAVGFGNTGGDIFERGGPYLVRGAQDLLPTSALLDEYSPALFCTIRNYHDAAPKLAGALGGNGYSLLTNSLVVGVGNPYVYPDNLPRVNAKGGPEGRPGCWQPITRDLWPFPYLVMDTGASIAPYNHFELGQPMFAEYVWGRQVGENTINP
UniProt A0QNR3: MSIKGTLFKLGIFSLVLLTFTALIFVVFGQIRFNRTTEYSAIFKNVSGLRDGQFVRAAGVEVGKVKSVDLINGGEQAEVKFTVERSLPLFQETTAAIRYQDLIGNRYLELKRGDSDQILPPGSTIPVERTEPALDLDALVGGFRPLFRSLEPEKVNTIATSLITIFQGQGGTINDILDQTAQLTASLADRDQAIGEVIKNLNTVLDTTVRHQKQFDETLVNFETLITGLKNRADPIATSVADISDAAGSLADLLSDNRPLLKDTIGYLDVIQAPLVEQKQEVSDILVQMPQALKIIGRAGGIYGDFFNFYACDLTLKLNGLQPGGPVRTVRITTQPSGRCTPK
UniProt A0QNR4: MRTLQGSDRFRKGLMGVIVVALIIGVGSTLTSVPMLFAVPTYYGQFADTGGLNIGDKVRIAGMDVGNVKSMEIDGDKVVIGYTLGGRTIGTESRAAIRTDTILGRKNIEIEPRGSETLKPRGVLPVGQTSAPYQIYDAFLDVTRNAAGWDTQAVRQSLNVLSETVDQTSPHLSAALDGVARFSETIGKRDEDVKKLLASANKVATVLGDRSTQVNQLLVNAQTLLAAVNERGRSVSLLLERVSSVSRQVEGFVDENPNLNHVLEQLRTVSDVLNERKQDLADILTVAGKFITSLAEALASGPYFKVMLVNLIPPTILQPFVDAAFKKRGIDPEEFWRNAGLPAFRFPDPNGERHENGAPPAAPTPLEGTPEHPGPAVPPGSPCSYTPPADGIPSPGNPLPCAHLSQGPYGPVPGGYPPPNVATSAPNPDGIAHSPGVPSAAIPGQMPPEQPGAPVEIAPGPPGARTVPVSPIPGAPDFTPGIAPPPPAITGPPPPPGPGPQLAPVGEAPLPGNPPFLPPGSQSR
UniProt A0QNR5: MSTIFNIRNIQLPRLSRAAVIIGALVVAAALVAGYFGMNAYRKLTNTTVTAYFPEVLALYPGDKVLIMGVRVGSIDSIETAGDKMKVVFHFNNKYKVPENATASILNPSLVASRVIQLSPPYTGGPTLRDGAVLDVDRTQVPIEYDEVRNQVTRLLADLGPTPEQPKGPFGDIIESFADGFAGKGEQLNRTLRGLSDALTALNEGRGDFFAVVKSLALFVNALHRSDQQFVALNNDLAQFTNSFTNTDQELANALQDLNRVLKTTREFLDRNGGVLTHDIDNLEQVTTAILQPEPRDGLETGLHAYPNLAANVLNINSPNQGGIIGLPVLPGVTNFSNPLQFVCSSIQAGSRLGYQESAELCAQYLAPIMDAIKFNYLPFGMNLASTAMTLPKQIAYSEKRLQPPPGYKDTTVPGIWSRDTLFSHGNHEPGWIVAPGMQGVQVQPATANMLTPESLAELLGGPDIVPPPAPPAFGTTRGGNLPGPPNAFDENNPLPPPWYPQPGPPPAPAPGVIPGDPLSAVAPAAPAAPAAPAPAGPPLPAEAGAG
UniProt A0QNR6: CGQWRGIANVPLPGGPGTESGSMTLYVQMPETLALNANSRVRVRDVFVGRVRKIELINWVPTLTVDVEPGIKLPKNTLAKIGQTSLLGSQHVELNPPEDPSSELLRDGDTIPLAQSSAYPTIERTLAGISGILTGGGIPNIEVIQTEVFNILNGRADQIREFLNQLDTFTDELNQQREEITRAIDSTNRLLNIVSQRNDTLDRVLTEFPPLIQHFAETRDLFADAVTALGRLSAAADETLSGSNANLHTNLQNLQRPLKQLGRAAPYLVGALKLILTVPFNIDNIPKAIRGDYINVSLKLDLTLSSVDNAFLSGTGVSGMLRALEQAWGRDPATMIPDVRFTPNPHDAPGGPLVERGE
UniProt A0QNR7: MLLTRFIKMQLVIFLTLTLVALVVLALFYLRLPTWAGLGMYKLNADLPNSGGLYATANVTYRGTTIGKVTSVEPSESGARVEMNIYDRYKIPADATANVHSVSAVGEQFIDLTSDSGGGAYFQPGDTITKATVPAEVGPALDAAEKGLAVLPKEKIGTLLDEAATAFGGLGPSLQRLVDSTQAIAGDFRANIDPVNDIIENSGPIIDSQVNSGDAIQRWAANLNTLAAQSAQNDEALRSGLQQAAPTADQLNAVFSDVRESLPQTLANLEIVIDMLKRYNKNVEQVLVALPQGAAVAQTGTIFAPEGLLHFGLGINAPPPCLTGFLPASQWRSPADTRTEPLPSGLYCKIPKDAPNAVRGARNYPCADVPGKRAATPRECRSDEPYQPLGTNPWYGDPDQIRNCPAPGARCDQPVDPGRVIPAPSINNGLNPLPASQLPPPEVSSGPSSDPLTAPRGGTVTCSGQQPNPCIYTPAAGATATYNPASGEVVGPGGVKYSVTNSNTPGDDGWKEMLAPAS
UniProt A0QS64: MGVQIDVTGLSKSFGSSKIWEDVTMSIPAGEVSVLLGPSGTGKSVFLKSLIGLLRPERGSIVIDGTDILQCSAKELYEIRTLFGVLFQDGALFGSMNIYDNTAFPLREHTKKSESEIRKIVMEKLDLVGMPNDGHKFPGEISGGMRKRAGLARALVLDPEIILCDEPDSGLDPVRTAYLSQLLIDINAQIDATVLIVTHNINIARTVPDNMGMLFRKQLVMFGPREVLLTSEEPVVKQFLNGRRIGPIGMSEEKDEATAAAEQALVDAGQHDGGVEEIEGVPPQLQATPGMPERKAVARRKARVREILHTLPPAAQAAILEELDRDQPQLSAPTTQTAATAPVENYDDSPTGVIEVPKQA
UniProt A0QNR0: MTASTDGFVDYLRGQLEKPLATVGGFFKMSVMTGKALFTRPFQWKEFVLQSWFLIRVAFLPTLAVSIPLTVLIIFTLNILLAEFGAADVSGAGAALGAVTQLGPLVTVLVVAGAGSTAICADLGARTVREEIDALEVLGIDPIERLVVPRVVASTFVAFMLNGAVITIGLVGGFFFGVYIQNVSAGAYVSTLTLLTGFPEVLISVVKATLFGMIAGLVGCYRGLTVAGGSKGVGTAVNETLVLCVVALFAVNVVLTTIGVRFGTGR

Molecular target: His6-YrbE1B (M. smegmatis) (UniProt A0QNR1)
Test: affinity purification with mass spectrometry; His-tagged YrbE1A or YrbE1B expressed in M. smegmatis Δmce1R; 1% DDM extract of total membranes on TALON resin, washes with 300 mM NaCl and 0.05% DDM, pH 8.0; SDS-PAGE bands and gel sections identified by LC-MS/MS (Fig. 1c)

Molecule	binding
MSMEG_5818 (from UniProt A0R4F8)	no binding
Mce1A (from UniProt A0QNR2)	binds
Mce1B (from UniProt A0QNR3)	binds
Mce1C (from UniProt A0QNR4)	binds
Mce1D (from UniProt A0QNR5)	binds
Mce1E (from UniProt A0QNR6)	binds
Mce1F (from UniProt A0QNR7)	binds
MceG (from UniProt A0QS64)	binds
YrbE1A (from UniProt A0QNR0)	binds
B1	binds
B2	binds

Molecular target: His-tagged YrbE1A (M. smegmatis)
Test: as above

Molecule	binding
B2	no binding

Reference: publication PMC10517005, “A conserved membrane protein negatively regulates Mce1 complexes in mycobacteria” (Nature Communications, 2023)
